Source: PubChem BioAssay AID504834 (National Center for Advancing Translational Sciences (NCATS), 2011)
Screen size: about 320,000 compounds; about 22,000 (6.9%) were called active. This list was built around the results that the source calls inconclusive (neither active nor inactive); the mix of calls is not that of the screen. Calls come from the whole dose curve; as a rule, active = well fitted inhibition curve with a large enough effect; inconclusive = small, poorly fitted or top-dose-only effect, or another doubt; inactive = no such curve, though single readings can be large or run the other way. A potency beside an inconclusive call is a rough fit, not a confirmed value.
% is set by controls: 0 for no effect and ±100 for the full control effect; potency is the fitted concentration of half-maximal effect.

Experiment: Primary qHTS for delayed death inhibitors of the malarial parasite plastid, 96 hour incubation
Details: P. falciparum luciferase reporter growth; series mostly up to 28.7 µM; activity change, negative = inhibition: at the top concentration
Outline: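 Luminescence readout: decreased luciferase signal marks inhibited growth of reporter-expressing P. falciparum in infected red cells (2% hematocrit, 0.05% parasitemia final), exposed to compound two generations (96 h, 37 C, 5% CO2).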
With COc1ccc(C=NC(CO)C(O)c2ccc([N+](=O)[O-])cc2)cc1 (centres undefined) the Potency was inconclusive: 1.04 µM [inhibitor, partial curve, poor fit]. For O=C(Nc1cccc(S(=O)(=O)N2CCOCC2)c1)c1cnccn1, the “activity change, negative = inhibition” value was inactive: 26.2%. For CCOC(=O)N1CCN(c2ccc(O)cc2)CC1, the Potency was inconclusive: 18.5 µM [inhibitor, single point]. In the case of CC(C)c1cccc(C(C)C)c1NC(=O)COC(=O)c1ccc(OCC(=O)Nc2cccc(C(F)(F)F)c2)cc1, the Potency is reported as inconclusive: 14.7 µM [inhibitor, partial curve, poor fit]. In the case of COc1ccc(Nc2nc(C)c(-c3ccccc3)s2)cc1, the Potency is reported as inconclusive: 18.5 µM [inhibitor, single point]. With Cc1ccc(N=CC=C2OC(C)(C)C(C)(C)O2)c(C)c1 the “activity change, negative = inhibition” value was inactive: 19.7%. In the case of Oc1ccccc1-c1cc(C(F)(F)F)[nH]n1, the Potency is reported as active: 9.28 µM. In the case of Cc1nn(CCOc2ccccc2)c(=O)n1-c1ccc(Cl)cc1, the “activity change, negative = inhibition” value is reported as inactive: 215%. With Cc1sc2c(c1C)C(O)=C(C(=O)Nc1ccccc1)S(=O)(=O)N2C the Potency was inconclusive: 13.1 µM [inhibitor, partial curve]. In the case of Cc1ccc2nc(C(F)C(F)(F)F)[nH]c2c1 (centres undefined), the Potency is reported as inconclusive: 18.5 µM [inhibitor, single point]. With CN(C)S(=O)(=O)c1ccc(NC(=O)/C=C/c2ccccc2Cl)cc1 the Potency was inconclusive: 18.5 µM [inhibitor, partial curve, poor fit]. With CSc1ccc(-c2sc(Nc3ccccc3)n[n+]2-c2ccccc2)cc1 the Potency was active: 1.85 µM. With CC(C)CNC(=S)NC1CC2CCCC(C1)N2Cc1ccco1 (centres undefined) the Potency was active: 11.7 µM. With Nc1ncnc(Nc2ccc(F)c(Cl)c2)n1 the “activity change, negative = inhibition” value was inactive: -0.678%. In the case of C=CCn1c(-c2cccnc2)n[nH]c1=S, the Potency is reported as inconclusive: 3.7 µM [inhibitor, full curve]. With CCC(C(=O)Nc1ccccc1OC)n1c(C(=O)OC)cc2ccsc21 (centres undefined) the Potency was inconclusive: 0.415 µM [inhibitor, full curve, poor fit]. For CC(=O)c1cccc(OCc2cc(C(=O)N3CCSCC3)no2)c1, the Potency was inconclusive: 10.4 µM [inhibitor, single point]. For CCCCC(CC)C(=O)N1CCN(C(=O)c2ccco2)CC1 (centres undefined), the Potency was inconclusive: 1.85 µM [inhibitor, full curve, poor fit]. For COc1cccc(-c2c(-c3cc(OC)cc(OC)c3)n(C)c3ccc(Br)cc23)c1, the Potency was inconclusive: 3.29 µM [inhibitor, single point]. In the case of COc1ccc(C2C(C#N)=C(N)Oc3c2c(-c2ccccc2)nn3-c2ccccc2)c(OC)c1OC (centres undefined), the Potency is reported as inconclusive: 11.7 µM [inhibitor, single point]. With CC(OC(=O)c1ccc(Br)c(S(=O)(=O)N2CCOCC2)c1)C(=O)NC1CCCCC1C (centres undefined) the Potency was inconclusive: 10.4 µM [inhibitor, single point]. For O=C(Nc1ccccc1N1CCCCC1)c1ccc([N+](=O)[O-])o1, the Potency was active: 8.28 µM. For CC(=O)Nc1ccc(S(=O)(=O)N2CCC(c3nc4ccc(C)cc4[nH]3)CC2)cc1, the Potency was inconclusive: 5.22 µM [inhibitor, partial curve, poor fit]. In the case of Cc1cc(C)nc(NC(=O)CSc2nn(C)c(=S)s2)n1, the Potency is reported as inconclusive: 14.7 µM [inhibitor, partial curve, poor fit]. With S=C(NCc1cccnc1)Nc1cc(Cl)cc(Cl)c1 the Potency was inconclusive: 18.5 µM [inhibitor, single point]. For CCc1nccn1CCC(=O)N1CCCC(Nc2ccc(F)cc2)C1 (centres undefined), the Potency was inconclusive: 7.38 µM [inhibitor, partial curve, poor fit]. With O=C1c2ccccc2NC(c2ccccc2Cl)N1N=C1CCCCCC1 (centres undefined) the “activity change, negative = inhibition” value was inactive: -9.18%. For Cn1cc(Cl)c(C(=O)N(Cc2ccccc2)c2ccccn2)n1, the “activity change, negative = inhibition” value was inactive: -0.64%. In the case of COCCN1C(=O)c2oc3ccccc3c(=O)c2C1c1ccc(C(=O)OC)cc1 (centres undefined), the Potency is reported as inconclusive: 18.5 µM [inhibitor, single point]. With CCOC(=O)c1ccc2[nH]c3ccccc3c2c1 the “activity change, negative = inhibition” value was inactive: 40.7%. For COc1ccccc1CC(=O)NCc1nn(-c2ccccc2)nc1C, the “activity change, negative = inhibition” value was inactive: 10.5%. With O=C(NCCNC(=O)c1cnccn1)c1ccc(Cl)cc1 the Potency was inconclusive: 9.28 µM [inhibitor, partial curve, poor fit]. In the case of NC(=O)C1CCN(c2nc(-c3ccccc3-c3ccccc3)cs2)CC1, the Potency is reported as inconclusive: 11.7 µM [inhibitor, single point]. For CN1C(=O)C(=Cc2ccccc2Oc2ccc(Cl)c(F)c2)C(=O)N(C)C1=O, the “activity change, negative = inhibition” value was inactive: 66.3%. For O=[N+]([O-])c1ccc(N2CCCCCC2)c(S(=O)(=O)N2CCCCC2)c1, the Potency was inconclusive: 10.4 µM [inhibitor, partial curve]. For Clc1nc(NCCN2CCOCC2)nc(NCc2ccccc2)n1, the Potency was inconclusive: 2.33 µM [inhibitor, full curve]. With O=C(CCc1nc2cccnc2n1Cc1ccccc1)NCCc1ccc(Cl)cc1 the Potency was inconclusive: 16.5 µM [inhibitor, partial curve, poor fit]. For CN(C)/C=C/C(=O)c1ccn(S(=O)(=O)c2ccccc2)c1, the Potency was inconclusive: 4.65 µM [inhibitor, partial curve]. In the case of O=C(Nc1cccc(F)c1)c1ccc(-c2ccccc2Cl)o1, the Potency is reported as inconclusive: 18.5 µM [inhibitor, single point]. For COc1ccccc1OCCOc1ccc(C(=O)c2ccccc2)cc1, the Potency was inconclusive: 18.5 µM [inhibitor, single point]. For CN1CCN(c2ccc(S(=O)(=O)N3CCCCC3)cc2NC(=O)Cc2ccccc2F)CC1, the Potency was inconclusive: 9.28 µM [inhibitor, partial curve, poor fit]. For COc1ccc(NC(=O)Nc2nnc(Cc3ccc(F)cc3)s2)cc1, the Potency was inconclusive: 14.7 µM [inhibitor, partial curve]. In the case of O=C(Nc1ccc2nc3n(c(=O)c2c1)CCCC3)c1ccccc1[N+](=O)[O-], the Potency is reported as inconclusive: 18.5 µM [inhibitor, single point]. For COC(=O)c1sccc1NC(=O)CN(C)NS(=O)(=O)c1ccc(Cl)cc1, the Potency was inconclusive: 9.28 µM [inhibitor, single point].
